Experimental data taken from PMC8641240.
No constants are given. Whether binding was seen depends on the method and setting. Binding seen in cells or lysates may run through a third protein. Some entries that bind do so weakly or less than the wild type. Sequences can lack the tags named with a protein.

Sequences of proteins named here, by UniProt entry; tags and fusion partners are left off.
UniProt Q8K3K8: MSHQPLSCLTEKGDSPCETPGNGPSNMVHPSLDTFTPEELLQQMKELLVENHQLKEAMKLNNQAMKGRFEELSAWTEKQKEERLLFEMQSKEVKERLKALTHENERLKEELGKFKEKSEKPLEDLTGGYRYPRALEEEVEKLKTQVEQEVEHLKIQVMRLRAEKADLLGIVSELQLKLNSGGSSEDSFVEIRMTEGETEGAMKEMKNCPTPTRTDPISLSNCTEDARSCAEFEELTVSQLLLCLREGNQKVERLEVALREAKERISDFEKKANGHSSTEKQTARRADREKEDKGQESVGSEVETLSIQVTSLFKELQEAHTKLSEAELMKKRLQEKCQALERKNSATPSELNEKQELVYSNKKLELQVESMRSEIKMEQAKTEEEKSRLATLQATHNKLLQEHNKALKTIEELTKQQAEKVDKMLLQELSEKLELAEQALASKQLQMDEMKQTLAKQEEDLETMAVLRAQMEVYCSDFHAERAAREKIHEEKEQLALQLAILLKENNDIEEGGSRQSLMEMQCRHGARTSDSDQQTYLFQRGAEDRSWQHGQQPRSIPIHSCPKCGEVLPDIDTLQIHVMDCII

Molecular target: T1, Full-length Flag-RIPK1 (mouse) (UniProt Q60855)
T1 sequence: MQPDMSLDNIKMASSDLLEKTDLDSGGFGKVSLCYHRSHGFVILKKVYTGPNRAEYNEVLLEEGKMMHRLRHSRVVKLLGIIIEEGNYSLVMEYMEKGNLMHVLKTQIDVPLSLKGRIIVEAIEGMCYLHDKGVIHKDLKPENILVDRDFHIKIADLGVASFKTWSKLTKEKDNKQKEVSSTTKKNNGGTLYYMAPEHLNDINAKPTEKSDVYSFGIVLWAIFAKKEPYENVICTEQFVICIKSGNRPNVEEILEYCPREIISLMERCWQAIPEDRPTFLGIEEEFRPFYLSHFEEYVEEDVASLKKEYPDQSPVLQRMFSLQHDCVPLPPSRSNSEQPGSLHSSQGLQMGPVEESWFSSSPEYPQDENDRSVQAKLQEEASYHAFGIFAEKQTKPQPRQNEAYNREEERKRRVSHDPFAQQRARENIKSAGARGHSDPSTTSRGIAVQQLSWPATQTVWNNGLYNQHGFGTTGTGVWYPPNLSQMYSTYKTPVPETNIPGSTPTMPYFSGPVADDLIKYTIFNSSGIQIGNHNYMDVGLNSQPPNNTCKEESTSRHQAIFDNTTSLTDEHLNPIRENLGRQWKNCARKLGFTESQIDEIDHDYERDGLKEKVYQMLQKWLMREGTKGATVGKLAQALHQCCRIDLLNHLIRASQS
Assay: co-IP; HEK293T cells cotransfected with HA-OPTN (or its truncation fragment) and Flag-RIPK1; lysate precipitated with anti-Flag antibody at 4 °C, captured on Dynabeads, blotted with anti-HA antibody

binding: binds
Substance: Full-length HA-OPTN (from UniProt Q8K3K8 1-584)
